PubChem BioAssay AID686938, Drosophila RNAi Screening Center – 2013

- Purpose: 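Fly genes required for calcium entry once internal stores are emptied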 (primary screen)
- System: Drosophila S2R+ cells
- Reagents: long dsRNA against Drosophila genes, about 0.25 µg dsRNA per well, roughly 10,000 cells
- Duration: 5 days of knock-down before the calcium assay
- Treatment: thapsigargin (SERCA pump blocker) to empty calcium stores; entry signal taken 4 min after adding it
- Detection: 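Duplicate raw fluo-4 intensities per well from a plate reader, at rest and four minutes after thapsigargin emptied calcium stores; entry-to-rest ratio filled for only some wells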
- Scale: calcium entry signal: higher = stronger calcium signal after store depletion; resting calcium signal: higher = higher resting calcium signal
- Active means: 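Called when the plate z-score of the entry-to-rest ratio, mean of duplicates, falls below −3; wells with low overall dye signal (Fmax z below −2) or more than five off-targets excluded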
- Meaning of the calls: active = strongly reduced calcium entry; inactive = no strong reduction
In all, the deposit lists about 23,000 reagents; below is a random part of those with a known target gene and a result. Over the whole deposit, 75 (0.33%) are marked active. 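Raw plate signals without normalisation; calls rest on plate z-scores that were not deposited; ratio present for only 364 wells.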 A number with no mark means an inactive call. Reagent sequences are not shown. Not given: the dose of the treatment.

| target gene | dsRNA | calcium entry signal, replicate 1 (fluorescence units) | calcium entry signal, replicate 2 (fluorescence units) | resting calcium signal, replicate 1 (fluorescence units) | resting calcium signal, replicate 2 (fluorescence units) |
| --- | --- | --- | --- | --- | --- |
| H (Hairless) | DRSC16692 | 3.75e7 | 3.80e7 | 4.70e7 | 1.65e7 |
| Vap33 (VAMP-associated protein 33kDa) | DRSC18384 | 3.53e7 | 5.03e7 | 1.69e7 | 2.48e7 |
| Ser6 (Serine protease 6) | DRSC20574 | 3.69e7 | 4.22e7 | 2.00e7 | 1.96e7 |
| SkpD (SKP1-related D) | DRSC22208 | 3.30e7 | 5.45e7 | 1.67e7 | 2.65e7 |
| janB (janus B) | DRSC16973 | 3.63e7 | 5.38e7 | 1.95e7 | 2.27e7 |
| NTPase | DRSC00761 | 4.16e7 | – | 1.98e7 | – |
| l(2)37Bb (lethal (2) 37Bb) | DRSC02088 | 4.19e7 | 5.57e7 | 2.13e7 | 2.76e7 |
| CG4631 | DRSC02766 | 5.01e7 | 3.05e7 | 2.12e7 | 1.52e7 |
| CG4631 | DRSC22194 | 3.59e7 | 4.84e7 | 1.64e7 | 2.77e7 |
| Psn (Presenilin) | DRSC11743 | 2.44e7 | 4.34e7 | 1.16e7 | 1.71e7 |
| CG17036 | DRSC02564 | 4.58e7 | 3.41e7 | 2.04e7 | 1.43e7 |
| CG7381 | DRSC16238 | 3.51e7 | 4.85e7 | 1.60e7 | 1.98e7 |
| Ir52c (Ionotropic receptor 52c) | DRSC21801 | 2.71e7 | 4.05e7 | 1.64e7 | 1.82e7 |
| CG34377 | DRSC13559 | 4.38e7 | 3.76e7 | 2.30e7 | 1.75e7 |
| CG34377 | DRSC14708 | 3.59e7 | 4.57e7 | 5.77e7 | 1.97e7 |
| CG34377 | DRSC14709 | 3.32e7 | 4.48e7 | 6.80e7 | 1.94e7 |
| CG34377 | DRSC14710 | 3.96e7 | 4.65e7 | 6.59e7 | 2.11e7 |
| CG34377 | DRSC14711 | 3.69e7 | 4.55e7 | 6.54e7 | 2.17e7 |
| CG9737 | DRSC16550 | 3.16e7 | 4.98e7 | 1.71e7 | 2.04e7 |
| CG15208 | DRSC19654 | 2.47e7 | 3.00e7 | 1.13e7 | 1.39e7 |
| CR42545 (pseudo) | DRSC03709 | 3.61e7 | 4.24e7 | 1.90e7 | 1.90e7 |

An excerpt taken from the entries so far, as a working copy:
| target gene | dsRNA | calcium entry signal, replicate 1 (fluorescence units) | calcium entry signal, replicate 2 (fluorescence units) | resting calcium signal, replicate 1 (fluorescence units) | resting calcium signal, replicate 2 (fluorescence units) |
| --- | --- | --- | --- | --- | --- |
| Ir52c (Ionotropic receptor 52c) | DRSC21801 | 2.71e7 | 4.05e7 | 1.64e7 | 1.82e7 |
| CG34377 | DRSC13559 | 4.38e7 | 3.76e7 | 2.30e7 | 1.75e7 |
| CG34377 | DRSC14708 | 3.59e7 | 4.57e7 | 5.77e7 | 1.97e7 |
| CG34377 | DRSC14709 | 3.32e7 | 4.48e7 | 6.80e7 | 1.94e7 |
| CG34377 | DRSC14710 | 3.96e7 | 4.65e7 | 6.59e7 | 2.11e7 |
| CG34377 | DRSC14711 | 3.69e7 | 4.55e7 | 6.54e7 | 2.17e7 |
| CG9737 | DRSC16550 | 3.16e7 | 4.98e7 | 1.71e7 | 2.04e7 |

Further entries follow.
| target gene | dsRNA | calcium entry signal, replicate 1 (fluorescence units) | calcium entry signal, replicate 2 (fluorescence units) | resting calcium signal, replicate 1 (fluorescence units) | resting calcium signal, replicate 2 (fluorescence units) |
| --- | --- | --- | --- | --- | --- |
| janA (janus A) | DRSC16972 | 3.89e7 | 5.00e7 | 1.88e7 | 2.10e7 |
| CG12620 | DRSC02177 | 4.20e7 | 2.42e7 | 1.89e7 | 1.12e7 |
| HERC2 (HECT and RLD domain containing protein 2) | DRSC20566 | 5.43e7 | 5.04e7 | 2.44e7 | 1.99e7 |
| CG9029 | DRSC03129 | 3.84e7 | 3.32e7 | 1.82e7 | 1.68e7 |
| SNCF (SoxNeuro Co-Factor) | DRSC10115 | 2.77e7 | 4.27e7 | 1.50e7 | 2.07e7 |
| CG33969 | DRSC11777 | 2.84e7 | 4.12e7 | 1.32e7 | 1.63e7 |
| Elba2 (Early boundary activity 2) | DRSC00731 | 4.54e7 | – | 1.92e7 | – |
| sav (salvador) | DRSC14681 | 5.38e7 | 6.05e7 | 2.69e7 | 2.45e7 |
| sav (salvador) | DRSC14682 | 4.86e7 | 6.36e7 | 2.61e7 | 2.57e7 |
| stmA (stambha A) | DRSC05120 | 1.62e7 | 2.65e7 | 9.22e6 | 1.21e7 |
| stmA (stambha A) | DRSC07593 | 6.09e7 | 4.31e7 | 2.34e7 | 1.90e7 |
| stmA (stambha A) | DRSC22179 | 2.70e7 | 2.89e7 | 1.33e7 | 1.51e7 |
| Stlk (Ste20-like kinase) | DRSC22687 | 2.74e7 | 3.25e7 | 1.44e7 | 1.41e7 |
| CG13321 | DRSC06358 | 2.20e7 | 3.08e7 | 1.09e7 | 1.30e7 |
| amon (amontillado) | DRSC13784 | 3.86e7 | 3.60e7 | 1.90e7 | 1.76e7 |
| amon (amontillado) | DRSC16900 | 2.72e7 | 5.01e7 | 1.44e7 | 2.60e7 |
| CG5376 | DRSC15782 | 3.21e7 | 3.95e7 | 6.45e7 | 1.75e7 |
| CG9663 | DRSC00724 | 4.61e7 | – | 2.62e7 | – |
| Sulf1 (Sulfated) | DRSC13150 | 3.66e7 | 3.99e7 | 2.02e7 | 1.80e7 |
| Sulf1 (Sulfated) | DRSC16874 | 3.27e7 | 4.49e7 | 1.64e7 | 7.54e7 |
